In publication PMC12955860:
Results are given in words; binding and its absence hold for the method and conditions named. Some entries that bind do so weakly or less than the wild type.

Target: Nuclear factor I-B (human (endogenous in LX-2)) (UniProt O00712)
Assay: Re-ChIP (sequential chromatin immunoprecipitation); LX-2 cells stimulated with TGF-β; chromatin cross-linked with 1% formaldehyde and sonicated to about 500 bp; immunoprecipitated with the indicated antibodies; CCL5 promoter read by real-time PCR

Row | binding | Binder
1 | no binding | interferon regulatory transcription factor 8 (protein, UniProt Q02556 1-426) MCDRNGGRRLRQWLIEQIDSSMYPGLIWENEEKSMFRIPWKHAGKQDYNQEVDASIFKAWAVFKGKFKEGDKAEPATWKTRLRCALNKSPDFEEVTDRSQLDISEPYKVYRIVPEEEQKCKLGVATAGCVNEVTEMECGRSEIDELIKEPSVDDYMGMIKRSPSPPEACRSQLLPDWWAQQPSTGVPLVTGYTTYDAHHSAFSQMVISFYYGGKLVGQATTTCPEGCRLSLSQPGLPGTKLYGPEGLELVRFPPADAIPSERQRQVTRKLFGHLERGVLLHSSRQGVFVKRLCQGRVFCSGNAVVCKGRPNKLERDEVVQVFDTSQFFRELQQFYNSQGRLPDGRVVLCFGEEFPDMAPLRSKLILVQIEQLYVRQLAEEAGKSCGAGSVMQAPEEPPPDQVFRMFPDICASHQRSFFRENQQITV
2 | binds | interferon regulatory transcription factor 3 (protein, UniProt Q14653 1-427) MGTPKPRILPWLVSQLDLGQLEGVAWVNKSRTRFRIPWKHGLRQDAQQEDFGIFQAWAEATGAYVPGRDKPDLPTWKRNFRSALNRKEGLRLAEDRSKDPHDPHKIYEFVNSGVGDFSQPDTSPDTNGGGSTSDTQEDILDELLGNMVLAPLPDPGPPSLAVAPEPCPQPLRSPSLDNPTPFPNLGPSENPLKRLLVPGEEWEFEVTAFYRGRQVFQQTISCPEGLRLVGSEVGDRTLPGWPVTLPDPGMSLTDRGVMSYVRHVLSCLGGGLALWRAGQWLWAQRLGHCHTYWAVSEELLPNSGHGPDGEVPKDKEGGVFDLGPFIVDLITFTEGSGRSPRYALWFCVGESWPQDQPWTKRLVMVKVVPTCLRALVEMARVGGASSLENTVDLHISNSHPLSLTSDQYKAYLQDLVEGMDFQGPGES
